No constants are given. Whether binding was seen depends on the method and setting. For part of these data: Binding calls can cover weak binding; strength is not graded here.

What all share (assay): two-hybrid
The target in assay [1] is Cep162-C (448-897 aa) (Drosophila melanogaster).
The target in assay [2] is Cep162-N (1-447 aa) (Drosophila melanogaster).
For assay [3], the target named is Cep162-FL (Drosophila melanogaster).

B1: Cep131-M1 (481-781 aa) (domain or fragment, UniProt A1Z7Z9 481-781)
chain: LDKVDSWMSMQDQKQYDGKHKPGLEDLDEAQDNDTASQLSLKSNEDSRDSTYDEIVSVIKEIEEDKKRDNFSEGIPSELNLNLDSRCETADTVTVSEGKVPESGDKYKDILAYLNNVESSCDKTLMETRRSIPDSNRSEVEFVVEPDVTDEVPKLSELLMLPNHQLARRVIALSLRANELANAIHMSKEHVFQLRGEKQKSLRAEKSTAAAKLRDQKKHYEEVVTRHQGFIEQLLKDKGSLCEKVAALTRRLESQNQAWEHRLETELARTKETTMAGEKIRRERWVRENTKKIKELTVKGL
Consider B1, for which the binding entry in assay [1] was “no binding”.

B2: Cep131-C1 (782-1114 aa) (domain or fragment, UniProt A1Z7Z9 782-1114)
chain: EAEINKMNCDHQREVTELKRTHQMQLLDALEEARTKHEQIETSIRESCAQDREAIIEKERTAIRERFERQLEEEQRTQAEQRQKLTEEFAAERDRLQSELRQRENEHQARRQEALREQEQELEQAKFEMQERMAKQEEKYQNRVNTIEQQYQADFELWKTEHENKTKLAQAEKENAIRQHYRAERDRQLDELVVRMEADALQHKEEHELKMNRLKEKYEKDLVLAESVEKSLREKYAETRGKLAEADAQVRNSQAEVKQLQLELSHSKKMCGDIIMERDRLRDNLNADIQSELGVLNERHKQEMDQLQKRVHQTIQRQEETIEILKGDNDALR
Consider B2, for which, in assay [1], the binding result is given as “binds”.

B3: Cep131-N1 (1-480 aa) (domain or fragment, UniProt A1Z7Z9 1-480)
chain: MDLCLKGSQINLATRQKTKPKYTSRSLTTLHNPCPHFRPRSANFLQQRSRSSPFLGRPQSADPKFGRRLSNYFVEKELRNGGKRQVSSNDLLKSLLEEPIKRSWLCRSTCNSSESDYSLHKRTPDSSEEGEQFLVNMPVGEKVKSYSSYSGNQGLSNGALLQRTAKPDLPGRVSFSKPNMHADLDSSDCDNDKQEVRPSISAPGPLTLPSFLSKVEQADPVGQKKSVHFGSTAAEGEVLAETYEYPKCPSENCTCSTRSSSTTSTNEASASDVKCACDAPSCRFMESSKQVEPTSPTPTLPKAPSSELDVIREYKQAVEGVQVVKNHLGTDTLNNIEILPNYLDKYASPTKEKQNNLSETKNMATNSSAVNNGSVVYRPVGNPRNFGAENNFLPAVQDDRRSFANGSSDGVINNYLKVASTPPFVGKKKENVKPASADPIARSSKSKVTKSTINPAPLGKMKKAISVGSLREERKLSEYN
B3: the binding result in assay [1] is on record as “binds”.

B4: Cep131-FL (1-1114 aa) (protein, UniProt A1Z7Z9 1-1134)
chain: MDLCLKGSQINLATRQKTKPKYTSRSLTTLHNPCPHFRPRSANFLQQRSRSSPFLGRPQSADPKFGRRLSNYFVEKELRNGGKRQVSSNDLLKSLLEEPIKRSWLCRSTCNSSESDYSLHKRTPDSSEEGEQFLVNMPVGEKVKSYSSYSGNQGLSNGALLQRTAKPDLPGRVSFSKPNMHADLDSSDCDNDKQEVRPSISAPGPLTLPSFLSKVEQADPVGQKKSVHFGSTAAEGEVLAETYEYPKCPSENCTCSTRSSSTTSTNEASASDVKCACDAPSCRFMESSKQVEPTSPTPTLPKAPSSELDVIREYKQAVEGVQVVKNHLGTDTLNNIEILPNYLDKYASPTKEKQNNLSETKNMATNSSAVNNGSVVYRPVGNPRNFGAENNFLPAVQDDRRSFANGSSDGVINNYLKVASTPPFVGKKKENVKPASADPIARSSKSKVTKSTINPAPLGKMKKAISVGSLREERKLSEYNLDKVDSWMSMQDQKQYDGKHKPGLEDLDEAQDNDTASQLSLKSNEDSRDSTYDEIVSVIKEIEEDKKRDNFSEGIPSELNLNLDSRCETADTVTVSEGKVPESGDKYKDILAYLNNVESSCDKTLMETRRSIPDSNRSEVEFVVEPDVTDEVPKLSELLMLPNHQLARRVIALSLRANELANAIHMSKEHVFQLRGEKQKSLRAEKSTAAAKLRDQKKHYEEVVTRHQGFIEQLLKDKGSLCEKVAALTRRLESQNQAWEHRLETELARTKETTMAGEKIRRERWVRENTKKIKELTVKGLEAEINKMNCDHQREVTELKRTHQMQLLDALEEARTKHEQIETSIRESCAQDREAIIEKERTAIRERFERQLEEEQRTQAEQRQKLTEEFAAERDRLQSELRQRENEHQARRQEALREQEQELEQAKFEMQERMAKQEEKYQNRVNTIEQQYQADFELWKTEHENKTKLAQAEKENAIRQHYRAERDRQLDELVVRMEADALQHKEEHELKMNRLKEKYEKDLVLAESVEKSLREKYAETRGKLAEADAQVRNSQAEVKQLQLELSHSKKMCGDIIMERDRLRDNLNADIQSELGVLNERHKQEMDQLQKRVHQTIQRQEETIEILKGDNDALRQQCLKLNAVIRQQRKDYCVK
As for B4, the binding result in assay [2] is “no binding”; in assay [3] it was “binds”; in assay [1] it was “binds”.
